{"source": "PubChem BioAssay AID504791, Drosophila RNAi Screening Center – 2011", "test": "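Genes of the fly required for silencing by miRNA, siRNA or endo-siRNA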 (primary screen)", "system": "Drosophila S2-derived reporter cells", "reagent": "long dsRNA against Drosophila genes, about 150-250 ng dsRNA per well (siRNA assay); about 80-120 ng (miRNA assay)", "time to read-out": "about 5 days (siRNA assay); about 4 days (miRNA assay)", "treatment": "copper sulfate induction of reporters: 25 µM (siRNA assay); 200 mM stated (miRNA assay), 1-2 days before reading", "measured": "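Dual luciferase assay: Renilla to firefly signal ratio in each well, scaled to the mean ratio of its plate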", "units": "stable assay Renilla, run 1 in luminescence; stable assay firefly, run 1 in luminescence", "hit rule": "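a well was a first-pass pick when its plate-scaled ratio rose above 1.5 (siRNA assay) or 1.6 (miRNA assay), or dropped below 0.6; a gene counted only if two separate dsRNAs agreed on retest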", "note": "The screen tested about 23,000 reagents; below is an unselected part of those with a known target gene and a result. In the full data, 199 (0.86%) were called active. 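Plate-scaled ratios behind the calls are not deposited; printed light signals are raw; many rows marked increased or decreased are still called inactive.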 Unmarked entries are inactive. Reagents against one gene are numbered here. A plus sign joins genes that one reagent is predicted to hit. Reagent sequences are not shown. Not given: the direction of the score."}
{"predicted target": "CG18605", "reagent no.": 1, "stable assay Renilla, run 1": 6699, "stable assay firefly, run 1": 4.46e5}
{"predicted target": "CG17122", "reagent no.": 1, "stable assay Renilla, run 1": 6283, "stable assay firefly, run 1": 3.72e5}
{"predicted target": "CG17242", "reagent no.": 1, "stable assay Renilla, run 1": 8530, "stable assay firefly, run 1": 4.20e5}
{"predicted target": "CG33969 + fbl", "reagent no.": 1, "stable assay Renilla, run 1": 6891, "stable assay firefly, run 1": 3.51e5}
{"predicted target": "CG9016", "reagent no.": 1, "stable assay Renilla, run 1": 7450, "stable assay firefly, run 1": 3.43e5}
{"predicted target": "Pex10 (Peroxin 10)", "reagent no.": 1, "stable assay Renilla, run 1": 4587, "stable assay firefly, run 1": 4.67e5}
{"predicted target": "Pex10 (Peroxin 10)", "reagent no.": 2, "stable assay Renilla, run 1": 8758, "stable assay firefly, run 1": 5.85e5}
{"predicted target": "Dnai2 (dynein, axonemal, intermediate chain 2)", "reagent no.": 1, "stable assay Renilla, run 1": 6054, "stable assay firefly, run 1": 4.27e5}
{"predicted target": "CG5969", "reagent no.": 1, "stable assay Renilla, run 1": 7526, "stable assay firefly, run 1": 3.89e5}
{"predicted target": "CG34310", "reagent no.": 1, "stable assay Renilla, run 1": 5686, "stable assay firefly, run 1": 6.72e5}
{"predicted target": "AGBE (1,4-Alpha-Glucan Branching Enzyme)", "reagent no.": 1, "stable assay Renilla, run 1": 9162, "stable assay firefly, run 1": 4.94e5}
{"predicted target": "CG14459", "reagent no.": 1, "stable siRNA reporter change": "reporter ratio raised past the hit cutoff", "stable assay Renilla, run 1": 7168, "stable assay firefly, run 1": 2.27e5}
{"predicted target": "CG14459", "reagent no.": 2, "stable assay Renilla, run 1": 5068, "stable assay firefly, run 1": 3.65e5}
{"predicted target": "CG7071 + Muted", "reagent no.": 1, "stable assay Renilla, run 1": 6759, "stable assay firefly, run 1": 3.06e5}
{"predicted target": "CG40245 (retired record)", "reagent no.": 1, "stable assay Renilla, run 1": 4735, "stable assay firefly, run 1": 4.01e5}
{"predicted target": "OS9 (Olfactory-specific 9)", "reagent no.": 1, "stable assay Renilla, run 1": 6331, "stable assay firefly, run 1": 4.09e5}
{"predicted target": "Cpr30F (Cuticular protein 30F)", "reagent no.": 1, "stable assay Renilla, run 1": 7724, "stable assay firefly, run 1": 6.21e5}
{"predicted target": "CG12869", "reagent no.": 1, "stable assay Renilla, run 1": 6216, "stable assay firefly, run 1": 2.58e5}
{"predicted target": "Cpr49Ah (Cuticular protein 49Ah)", "reagent no.": 1, "stable assay Renilla, run 1": 6654, "stable assay firefly, run 1": 3.47e5}
{"predicted target": "snoRNA:Me28S-A982b + Uhg4 + snoRNA:Me28S-G3255a + 1 more", "reagent no.": 1, "stable assay Renilla, run 1": 5600, "stable assay firefly, run 1": 4.68e5}
{"predicted target": "dyw (daywake)", "reagent no.": 1, "stable assay Renilla, run 1": 5747, "stable assay firefly, run 1": 3.46e5}
{"predicted target": "CG13676", "reagent no.": 1, "stable assay Renilla, run 1": 6708, "stable assay firefly, run 1": 6.01e5}
{"predicted target": "GrlHz (Gustatory receptor-like Holozoa)", "reagent no.": 1, "stable assay Renilla, run 1": 28607, "stable assay firefly, run 1": 3.23e5}
{"predicted target": "yrt (yurt)", "reagent no.": 1, "stable assay Renilla, run 1": 9095, "stable assay firefly, run 1": 6.74e5}
{"predicted target": "CG32262", "reagent no.": 1, "stable assay Renilla, run 1": 7543, "stable assay firefly, run 1": 5.21e5}
{"predicted target": "CG32037", "reagent no.": 1, "stable assay Renilla, run 1": 5784, "stable assay firefly, run 1": 3.28e5}
{"predicted target": "CG33673", "reagent no.": 1, "stable assay Renilla, run 1": 5003, "stable assay firefly, run 1": 4.65e5}
{"predicted target": "FoxL1 (Forkhead box L1)", "reagent no.": 1, "stable assay Renilla, run 1": 5003, "stable assay firefly, run 1": 2.68e5}

Ordered by “stable assay Renilla, run 1” (high to low): some entries from above
{"predicted target": "CG17242", "reagent no.": 1, "stable assay Renilla, run 1": 8530, "stable assay firefly, run 1": 4.20e5}
{"predicted target": "CG18605", "reagent no.": 1, "stable assay Renilla, run 1": 6699, "stable assay firefly, run 1": 4.46e5}
{"predicted target": "CG17122", "reagent no.": 1, "stable assay Renilla, run 1": 6283, "stable assay firefly, run 1": 3.72e5}
